Article doi:10.64898/2025.12.02.691793

Chains of the proteins cited; added tags and fusions are not shown. Lines headed by an entry give the natural chain unless they say otherwise; changes in a name come on top.
UniProt Q9UPN9: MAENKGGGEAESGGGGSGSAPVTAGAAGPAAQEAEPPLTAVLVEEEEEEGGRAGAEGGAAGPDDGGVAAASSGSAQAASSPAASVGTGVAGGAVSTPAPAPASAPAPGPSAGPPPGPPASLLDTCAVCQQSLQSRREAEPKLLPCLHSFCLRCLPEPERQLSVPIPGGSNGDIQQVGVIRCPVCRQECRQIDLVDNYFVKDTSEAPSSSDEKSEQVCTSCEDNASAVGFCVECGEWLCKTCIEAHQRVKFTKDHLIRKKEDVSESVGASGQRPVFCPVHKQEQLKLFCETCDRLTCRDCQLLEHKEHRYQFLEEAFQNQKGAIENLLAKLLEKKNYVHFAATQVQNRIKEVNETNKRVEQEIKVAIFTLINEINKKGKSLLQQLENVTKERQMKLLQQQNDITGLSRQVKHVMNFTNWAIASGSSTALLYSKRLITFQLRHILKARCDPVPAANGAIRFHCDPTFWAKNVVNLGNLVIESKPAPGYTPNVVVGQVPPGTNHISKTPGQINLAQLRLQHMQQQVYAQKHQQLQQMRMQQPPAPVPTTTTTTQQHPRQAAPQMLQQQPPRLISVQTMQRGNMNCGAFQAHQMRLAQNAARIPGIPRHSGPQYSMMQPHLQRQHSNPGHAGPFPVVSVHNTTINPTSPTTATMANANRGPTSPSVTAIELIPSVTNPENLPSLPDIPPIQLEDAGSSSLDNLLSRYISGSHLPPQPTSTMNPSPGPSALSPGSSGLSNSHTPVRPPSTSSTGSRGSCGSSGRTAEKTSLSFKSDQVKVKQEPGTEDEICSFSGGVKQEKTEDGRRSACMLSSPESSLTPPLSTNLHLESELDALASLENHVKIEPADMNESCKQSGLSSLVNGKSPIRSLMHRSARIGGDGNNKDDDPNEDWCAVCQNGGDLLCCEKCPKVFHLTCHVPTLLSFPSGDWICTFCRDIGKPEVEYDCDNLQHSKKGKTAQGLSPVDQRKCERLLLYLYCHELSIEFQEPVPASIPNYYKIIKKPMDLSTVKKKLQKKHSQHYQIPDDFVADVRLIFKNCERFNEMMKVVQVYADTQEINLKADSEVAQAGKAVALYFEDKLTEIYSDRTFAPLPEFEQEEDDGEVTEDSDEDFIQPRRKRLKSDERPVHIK
UniProt P0C0S5: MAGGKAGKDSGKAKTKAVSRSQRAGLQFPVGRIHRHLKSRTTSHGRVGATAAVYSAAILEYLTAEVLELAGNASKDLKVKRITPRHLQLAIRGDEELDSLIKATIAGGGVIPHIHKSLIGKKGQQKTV
UniProt Q9Y4A5: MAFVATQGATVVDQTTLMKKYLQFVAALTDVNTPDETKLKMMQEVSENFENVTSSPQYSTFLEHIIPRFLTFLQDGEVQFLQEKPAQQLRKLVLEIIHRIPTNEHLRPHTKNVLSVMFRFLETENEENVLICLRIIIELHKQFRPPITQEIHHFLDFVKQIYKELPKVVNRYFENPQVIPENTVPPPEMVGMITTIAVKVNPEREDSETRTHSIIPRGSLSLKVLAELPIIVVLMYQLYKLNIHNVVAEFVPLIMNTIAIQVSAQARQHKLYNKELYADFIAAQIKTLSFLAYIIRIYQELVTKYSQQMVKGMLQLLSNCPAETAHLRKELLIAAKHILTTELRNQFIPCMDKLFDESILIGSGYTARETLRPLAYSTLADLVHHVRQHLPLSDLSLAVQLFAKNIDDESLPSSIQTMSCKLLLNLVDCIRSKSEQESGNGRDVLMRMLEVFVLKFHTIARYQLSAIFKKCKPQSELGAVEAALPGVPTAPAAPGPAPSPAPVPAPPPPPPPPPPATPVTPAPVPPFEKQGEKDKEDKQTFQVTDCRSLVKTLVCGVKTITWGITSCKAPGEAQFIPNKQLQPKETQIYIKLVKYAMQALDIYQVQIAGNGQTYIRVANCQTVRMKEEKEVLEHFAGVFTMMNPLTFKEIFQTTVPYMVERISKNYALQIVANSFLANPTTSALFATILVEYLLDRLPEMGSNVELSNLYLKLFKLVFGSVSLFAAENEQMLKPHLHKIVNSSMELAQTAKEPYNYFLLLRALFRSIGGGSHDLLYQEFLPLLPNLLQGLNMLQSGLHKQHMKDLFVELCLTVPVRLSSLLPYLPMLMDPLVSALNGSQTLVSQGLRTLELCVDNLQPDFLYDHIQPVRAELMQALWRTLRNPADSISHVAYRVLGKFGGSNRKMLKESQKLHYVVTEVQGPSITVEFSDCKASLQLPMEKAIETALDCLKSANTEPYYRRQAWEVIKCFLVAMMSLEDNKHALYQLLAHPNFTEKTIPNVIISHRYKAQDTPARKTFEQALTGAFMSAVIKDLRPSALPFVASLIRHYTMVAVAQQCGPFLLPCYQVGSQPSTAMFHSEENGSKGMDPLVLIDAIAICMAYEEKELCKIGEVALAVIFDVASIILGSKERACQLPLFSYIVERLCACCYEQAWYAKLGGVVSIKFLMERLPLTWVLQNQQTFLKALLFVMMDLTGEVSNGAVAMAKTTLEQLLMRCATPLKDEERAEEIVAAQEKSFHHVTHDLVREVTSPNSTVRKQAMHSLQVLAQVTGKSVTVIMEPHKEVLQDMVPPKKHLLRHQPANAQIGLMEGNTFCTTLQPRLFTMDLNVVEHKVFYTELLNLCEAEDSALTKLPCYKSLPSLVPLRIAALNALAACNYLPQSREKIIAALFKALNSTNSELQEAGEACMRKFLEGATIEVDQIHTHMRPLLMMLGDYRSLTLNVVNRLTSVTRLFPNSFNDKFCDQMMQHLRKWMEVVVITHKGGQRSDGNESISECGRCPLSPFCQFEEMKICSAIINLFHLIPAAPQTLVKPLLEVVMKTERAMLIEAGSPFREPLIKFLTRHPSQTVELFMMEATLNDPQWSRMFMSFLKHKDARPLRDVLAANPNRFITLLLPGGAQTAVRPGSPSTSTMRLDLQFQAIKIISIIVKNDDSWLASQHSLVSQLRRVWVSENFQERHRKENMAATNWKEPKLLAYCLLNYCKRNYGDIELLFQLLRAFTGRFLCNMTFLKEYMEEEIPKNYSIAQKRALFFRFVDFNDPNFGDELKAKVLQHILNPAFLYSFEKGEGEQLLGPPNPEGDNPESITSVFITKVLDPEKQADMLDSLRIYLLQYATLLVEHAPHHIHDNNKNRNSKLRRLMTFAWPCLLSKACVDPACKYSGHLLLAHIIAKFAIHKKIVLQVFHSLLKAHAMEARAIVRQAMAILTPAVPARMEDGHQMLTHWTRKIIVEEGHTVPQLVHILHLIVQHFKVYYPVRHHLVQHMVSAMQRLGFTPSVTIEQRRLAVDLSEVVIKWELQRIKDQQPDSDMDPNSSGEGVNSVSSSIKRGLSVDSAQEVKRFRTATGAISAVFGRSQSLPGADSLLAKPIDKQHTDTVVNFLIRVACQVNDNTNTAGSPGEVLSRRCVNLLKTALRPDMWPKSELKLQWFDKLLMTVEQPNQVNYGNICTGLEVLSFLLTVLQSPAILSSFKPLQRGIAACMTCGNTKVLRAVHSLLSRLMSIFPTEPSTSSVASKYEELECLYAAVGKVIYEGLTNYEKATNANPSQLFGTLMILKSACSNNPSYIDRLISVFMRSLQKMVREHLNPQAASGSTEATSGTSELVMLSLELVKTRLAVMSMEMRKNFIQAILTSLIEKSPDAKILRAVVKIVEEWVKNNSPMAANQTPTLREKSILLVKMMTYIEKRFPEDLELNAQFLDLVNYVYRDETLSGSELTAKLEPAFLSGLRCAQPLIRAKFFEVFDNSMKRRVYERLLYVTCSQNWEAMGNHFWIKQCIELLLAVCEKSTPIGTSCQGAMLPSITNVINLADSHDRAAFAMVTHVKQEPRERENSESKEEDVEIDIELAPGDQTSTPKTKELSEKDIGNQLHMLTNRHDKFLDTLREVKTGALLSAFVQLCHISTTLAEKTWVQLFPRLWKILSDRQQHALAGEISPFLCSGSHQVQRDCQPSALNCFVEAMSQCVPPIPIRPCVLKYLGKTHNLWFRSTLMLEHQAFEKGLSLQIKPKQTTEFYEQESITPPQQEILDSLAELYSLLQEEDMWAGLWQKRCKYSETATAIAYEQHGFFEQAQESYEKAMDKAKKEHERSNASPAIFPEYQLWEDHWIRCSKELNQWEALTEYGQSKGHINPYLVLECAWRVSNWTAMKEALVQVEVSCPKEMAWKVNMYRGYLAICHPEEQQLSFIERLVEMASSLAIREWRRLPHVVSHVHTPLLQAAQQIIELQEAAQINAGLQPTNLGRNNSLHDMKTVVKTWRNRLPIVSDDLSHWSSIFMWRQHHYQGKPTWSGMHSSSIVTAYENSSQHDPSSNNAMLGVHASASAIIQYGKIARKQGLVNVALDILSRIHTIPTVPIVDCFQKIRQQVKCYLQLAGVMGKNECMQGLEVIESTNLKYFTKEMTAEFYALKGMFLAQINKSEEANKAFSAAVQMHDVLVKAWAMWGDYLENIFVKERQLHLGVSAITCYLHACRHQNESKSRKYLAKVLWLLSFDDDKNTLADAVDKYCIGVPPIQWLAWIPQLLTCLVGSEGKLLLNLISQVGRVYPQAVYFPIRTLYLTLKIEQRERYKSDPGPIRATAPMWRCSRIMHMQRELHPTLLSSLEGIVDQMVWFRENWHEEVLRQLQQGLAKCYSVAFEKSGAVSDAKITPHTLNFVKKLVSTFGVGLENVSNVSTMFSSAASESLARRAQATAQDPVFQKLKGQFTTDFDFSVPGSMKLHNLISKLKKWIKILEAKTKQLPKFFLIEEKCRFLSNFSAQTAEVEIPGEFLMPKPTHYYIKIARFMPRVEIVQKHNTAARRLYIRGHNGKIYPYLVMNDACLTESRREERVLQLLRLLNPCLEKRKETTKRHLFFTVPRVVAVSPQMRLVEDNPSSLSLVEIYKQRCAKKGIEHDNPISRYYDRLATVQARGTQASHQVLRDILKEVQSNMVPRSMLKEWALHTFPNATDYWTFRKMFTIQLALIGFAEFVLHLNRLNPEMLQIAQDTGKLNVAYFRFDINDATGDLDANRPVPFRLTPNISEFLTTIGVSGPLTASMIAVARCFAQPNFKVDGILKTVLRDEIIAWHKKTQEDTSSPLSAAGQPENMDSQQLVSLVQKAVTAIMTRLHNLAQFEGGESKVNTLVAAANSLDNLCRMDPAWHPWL

Biological target: Transcriptional Intermediary Factor 1γ (TIF1γ) (human (endogenous in HSC-3 and HSC-4)) (UniProt Q9UPN9)
Assay: affinity purification with mass spectrometry

| binding | Substance |
| --- | --- |
| binds | H2A.Z (from UniProt P0C0S5 1-128) |
| binds | TRRAP (from UniProt Q9Y4A5 1-3859) |

Results are given in words; binding and its absence hold for the method and conditions named. Binding seen in cells or lysates may run through a third protein. These calls come from enrichment with a bait or labelling near it, and not all partners need be listed.
